From paper PMC7449455 (PLoS Neglected Tropical Diseases, 2020)

How the values were obtained:
[1] = Cytotoxicity in HepG2 cells (CellTiter-Glo); assay type: cell-based; conditions: human, HepG2 cell line, ATP quantification
Procedure: (§1) To determine compound toxicity we used the HepG2 cell line (human hepatocellular carcinoma, ATCC HB-8065) as a widely used cell-based assay. The cells were maintained in MEM (Gibco) supplemented with 5% heat-inactivated FBS, 1 mM Sodium pyruvate (Gibco) and 1X MEM amino acids solution (Sigma). Briefly, cells were added to white-bottomed 96-well plates containing 100 μL of serial 2-fold dilutions of the H1RAs. After 24 hours of culture at 37 °C, the percentage of viable cells was determined by ATP quantification using the CellTiter-Glo luminescent Cell Viability Assay (Promega) according to the manufacturer’s instructions. […] At least three different assays were carried out to determine the IVTI of each compound, which was calculated as the ratio between the CC50 obtained in the HepG2 cell line and the EC50 determined in the L. major EVC [21]. To evaluate the cytotoxicity of AZ and FX in peritoneal macrophages, adherent cells obtained from peritoneal lavage of naïve mice (10,000/well) were exposed during 24 hours at 37°C to serial drug concentrations (0.09 μM—200 μM). Cell viability was determined by CellTiter-Glo (Promega).

[2] = Cytotoxicity in naive mouse peritoneal macrophages (CellTiter-Glo); assay type: cell-based; conditions: read-out: CC50 (toxicity in peritoneal macrophages)
Procedure: as §1

Structure (SMILES) | CC50 at 24 h [1] | CC50 at 24 h [2]
CN(C)CCOC(c1ccccc1)c1ccccc1 [Diphenhydramine] | 375 ± 17.8 µM | –
CC(C)(C(=O)O)c1ccc(C(O)CCCN2CCC(C(O)(c3ccccc3)c3ccccc3)CC2)cc1 (stereo not drawn) [Fexofenadine] | 822 ± 87.2 µM | ≥ 100 µM
